Several values for one entry are separate records, joined by “and”; a condition that tells them apart may be missing. Identical values can stand only once. Out of some 580,000 compounds screened, about 6,100 (1.1%) were called active. Inconclusive means that the source gave no clear call. Such entries were picked first, then a sample of the others. Calls come from the whole dose curve; as a rule, active = well fitted inhibition curve with a large enough effect; inconclusive = small, poorly fitted or top-dose-only effect, or another doubt; inactive = no such curve, though single readings can be large or run the other way. Potencies beside an inconclusive call are fits to weak or partial responses and may not hold up.
These compounds were tested against Polyunsaturated fatty acid lipoxygenase ALOX12 (Homo sapiens) (UniProt P18054) (assay: Primary qHTS assay for inhibitors of human arachidonate 12S-lipoxygenase (ALOX12): Round 2). Settings: purified 12hLO, xylenol orange hydroperoxide absorbance; activity change, negative = inhibition: at 108 µM (top of the series) unless noted.
Outline: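 Purified human 12hLO at 150 nM in 25 mM Hepes, 0.01% Triton X-100, pH 7.0, preincubated 15 min at room temperature with compound. Reaction started with 40 uM arachidonic acid, 30 min at room temperature. Hydroperoxide measured by Fe-xylenol orange, 573/405 nm absorbance ratio.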
% is set by controls: 0 for no effect and ±100 for the full control effect; potency is the fitted concentration of half-maximal effect.

Sequences of proteins named here, by UniProt entry; tags and fusion partners are left off. A change or cut given only in a name is not applied to a line headed by its entry.
UniProt P18054: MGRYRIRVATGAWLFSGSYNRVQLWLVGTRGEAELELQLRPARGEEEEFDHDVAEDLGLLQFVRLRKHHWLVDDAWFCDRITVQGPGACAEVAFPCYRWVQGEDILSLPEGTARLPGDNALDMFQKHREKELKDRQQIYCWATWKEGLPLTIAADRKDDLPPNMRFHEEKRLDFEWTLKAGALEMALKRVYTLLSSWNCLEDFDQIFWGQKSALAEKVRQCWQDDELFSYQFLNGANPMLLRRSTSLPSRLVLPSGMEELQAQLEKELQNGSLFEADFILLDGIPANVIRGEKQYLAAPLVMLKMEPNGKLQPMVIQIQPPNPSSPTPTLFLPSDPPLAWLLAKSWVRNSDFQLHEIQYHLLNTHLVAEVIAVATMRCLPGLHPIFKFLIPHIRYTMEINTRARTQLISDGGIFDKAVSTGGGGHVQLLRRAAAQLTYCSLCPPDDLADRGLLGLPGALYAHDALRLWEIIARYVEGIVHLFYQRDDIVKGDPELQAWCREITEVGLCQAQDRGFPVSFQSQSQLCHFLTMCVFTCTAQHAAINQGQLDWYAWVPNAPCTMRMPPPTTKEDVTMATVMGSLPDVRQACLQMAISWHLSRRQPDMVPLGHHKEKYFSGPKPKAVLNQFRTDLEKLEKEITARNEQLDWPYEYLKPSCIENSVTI

Compound	activity change, negative = inhibition	Potency
O=C1COCCN1C1CCN(Cc2ccc(C(F)(F)F)cc2)CC1	inactive: 5.88% [at 6.33 µM] and inactive: 16% [at 6.33 µM]	–
CC(C)OC(=O)c1cccc(C(=O)OCc2ccco2)n1	–	inconclusive: 39.8 µM [inhibitor, partial curve, poor fit]
Cc1nc(C)c(C(=O)OC(C)C(=O)Nc2ccc(F)cc2)s1 (configuration not stated)	inactive: -22.9%	–
CCc1ccc(CNC(=O)CCN2C(=O)COc3ccccc32)cc1	inactive: -14.7%	–
COC(=O)c1sccc1NC(=O)CSc1ccccc1NS(=O)(=O)c1cc(Cl)ccc1Cl	–	inconclusive: 112 µM [inhibitor, single point]
Cn1ccc(C(=O)N2CC3ON=C(C(=O)N4CCN(c5ncccn5)CC4)C3C2)n1 (configuration not stated)	inactive: 15.1% [at 6.33 µM]	–
CCC/C(=N\NC(N)=S)c1ccccc1	–	inconclusive: 31.6 µM [inhibitor, partial curve, poor fit]
O=C(CCc1nc(CS(=O)(=O)c2ccc(F)cc2)no1)NCCc1ccccc1Cl	inactive: 2.96%	–
CN1CCN(CCCNC(=O)c2nc3ccccc3c(=O)[nH]2)CC1	inactive: 20.4%	–
COc1ccc2nc(N3C(=O)CC(C(C)c4ccccc4)C3=O)sc2c1 (configuration not stated)	inactive: -6.94%	–
CC(=O)C1=C(O)C(=O)N(c2ccc(S(N)(=O)=O)cc2)C1c1ccccc1F (configuration not stated)	–	inconclusive: 31.6 µM [inhibitor, full curve, poor fit]
CC(C)n1nc(C(=O)Nc2nc3c(s2)CN(C)CC3)c2ccccc2c1=O	inactive: -11.8%	–
Cc1c(N=Cc2nc3ccccc3n2C)c(=O)n(-c2ccccc2)n1C	–	inconclusive: 100 µM [inhibitor, partial curve, poor fit]
CCN(CC)CCNC(=O)c1ccc2c(=O)n(C3CCCC3)c(=S)[nH]c2c1	–	inconclusive: 44.7 µM [inhibitor, partial curve, poor fit]
CC(C)c1ccc(Nc2c3c(nc4ccccc24)CCCC3)cc1	–	inconclusive: 44.7 µM [inhibitor, partial curve, poor fit]
Cc1c(C(=O)N2CCN(Cc3ccccc3)CC2)oc2c1C(=O)CC(C)(C)C2	–	inconclusive: 44.7 µM [inhibitor, partial curve, poor fit]
Cc1ccc(NS(=O)(=O)c2ccc(CCC(=O)NC3CC3)cc2)cc1	inactive: -23.3%	–
CSc1ccc(CCNC(=O)C(C)n2c(C)c3cnn(-c4ccccc4)c(=O)c3c2C)cc1 (configuration not stated)	–	inconclusive: 224 µM [inhibitor, partial curve, poor fit]
C/C(=N\NC(=S)NC1CCCCC1)c1cccc(C(F)(F)F)c1	–	inconclusive: 7.94 µM [inhibitor, partial curve, poor fit]
CCCN1C(=O)S/C(=C/c2ccc(N3CCOCC3)o2)C1=O	–	inconclusive: 14.1 µM [inhibitor, partial curve, poor fit]
O=C(NCCNC1CCCCC1)c1ccco1	–	inconclusive: 2 µM [inhibitor, full curve]

Compound	activity change, negative = inhibition	Potency
CC(C)C(C)N(C)Cc1nnc(-c2ccc(Br)o2)o1 (configuration not stated)	inactive: 22.2%	–
c1cn(CCCNC2CCCCCCC2)cn1	–	inconclusive: 35.5 µM [inhibitor, single point]
CC(NC(=O)c1ccc2c(c1)CCCC2)c1ccc(F)cc1F (configuration not stated)	–	active: 39.8 µM
O=C(NC(=S)Nc1ccccc1N1CCCC1)c1cccc(F)c1	–	inconclusive: 39.8 µM [inhibitor, partial curve, poor fit]
N#Cc1nc(/C=C/c2ccc(F)cc2)oc1NCc1ccc2c(c1)OCO2	–	inconclusive: 1.78 µM [inhibitor, full curve, poor fit]
NCc1ccc(-c2cc(C(F)(F)F)ccc2Cl)cc1	–	inconclusive: 0.5 µM [inhibitor, single point]
CC(C)Cc1nc(N2CCN(C(=O)c3ccccc3)CC2)c(C#N)c2c1CCC2	inactive: 0%	–
Cc1nc(N2CCOCC2)c(C#N)c2c1COC(C)(C)C2	inactive: 17.4%	–
CCc1ccc(OCC(=O)OC(C)C(=O)Nc2ccc(Cl)cn2)cc1 (configuration not stated)	–	inconclusive: 126 µM [inhibitor, partial curve, poor fit]
Cc1ccc2c(CSc3nncs3)cc(=O)oc2c1	–	inconclusive: 63.1 µM [inhibitor, partial curve, poor fit] and inconclusive: 56.2 µM [inhibitor, partial curve, poor fit]
C#CCOCCOCCOCCNc1nc(N2CCN(C(=O)Cn3cc(CCO)nn3)CC2)nc(N2CCN(C(=O)[C@H]([C@@H](C)O)n3cc(CCCCN)nn3)CC2)n1	–	inconclusive: 17.8 µM [inhibitor, full curve]
Cc1cc(/C=C(\C#N)C(=O)OCC(=O)N(C)c2c(N)n(Cc3ccccc3)c(=O)[nH]c2=O)c(C)n1CC(C)C	inactive: -13.8%	–
COc1ccc(C(=O)N2CCC3(CC2)NC(=O)N(Cc2ccc(C)cc2)C3=O)cc1	–	inconclusive: 15.8 µM [inhibitor, full curve]
CC(C)(C)NC(=O)c1cccc(NC(=O)CSc2ccc(Cl)cc2)c1	–	inconclusive: 63.1 µM [inhibitor, partial curve, poor fit]
CCOc1cc(-c2nc(C)c(C(C)=O)n2O)ccc1OCC(=O)Nc1ccc(F)cc1	inactive: -4.28%	–
CC(=O)Nc1cc(C(=O)NCc2ccc(F)cc2Cl)ccc1Sc1ccc(Cl)cc1	–	inconclusive: 3.98 µM [inhibitor, partial curve, poor fit]
COc1ccc(Cc2nnc(Nc3cccc(C)c3)[nH]c2=O)cc1OC	–	inconclusive: 31.6 µM [inhibitor, single point]
COc1ccc(NC(=O)Cn2c(-c3ccc(Cl)cc3)nc(C)cc2=O)cc1OC	inactive: 9.36%	–
Cc1ccc(N2CCC(NC(=O)c3ccc(Br)cc3)C2=O)cc1 (configuration not stated)	inactive: -26.5%	–
CCOc1nc2ccccc2nc1N1CCC(C(=O)NCc2ccc(C)cc2)CC1	–	inconclusive: 100 µM [inhibitor, partial curve, poor fit]
CCCCN1C(=O)C(=O)N(CC(=O)c2ccc3c(c2)CCCC3)C1=O	–	inconclusive: 15.8 µM [inhibitor, partial curve, poor fit]
